Experimental data published in patent publication US20120177693A1, “DEEP LUNG PULMONARY DELIVERY OF TREPROSTINIL” (Aradigm Corporation, priority 2008, published 2012).

Test: Gamma scintigraphy of 99mTc-DTPA radiolabeled treprostinil sodium inhaled via AERx Essence System or Nebu-Tec Optineb nebulizer, two-way crossover, 14 healthy male subjects
Assay type: in vivo, human
Details: for % loaded dose in mouthpiece, AERx − Nebu-Tec Difference (95% C.I.): difference of LSmeans, monosodium salt; for % loaded dose in mouthpiece: LSmeans
From the text: This was an open label study conducted in a single-center, using a randomized, two-way crossover design. Sixteen healthy adult male subjects were to be enrolled to receive study treatments. Upon provision of written informed consent, each study candidate underwent a pre-study evaluation and screening to determine eligibility to participate.
On each of two dosing days, eligible subjects underwent dosing with ^99mTc-labeled treprostinil sodium using either the AERx Essence System or the Nebu-Tec Optineb nebulizer. Following their initial study dose, subjects underwent a washout period of approximately 48 hours before completing a second (crossover) study dose.
Immediately following each study dose, subjects underwent gamma scintigraphy and multiple samplings of venous blood to characterize treprostinil lung deposition and plasma pharmacokinetics.
Subjects also underwent a Krypton-81m (^81mKr) gas ventilation imaging procedure. This procedure could have been performed on any dosing day followed by a 30 minute washout before any of the aerosol dosing procedures, if there were logistical/scheduling problems, ventilation imaging could have been done after dosing. Alternatively the ^81mKr ventilation scan could have been performed on a separate visit. Additionally transmission images were also acquired this could have been performed on any dosing day prior to any of the aerosol dosing procedures or on a separate visit
A single “bulk” treprostinil sodium formulation (600 μg/mL) was used for both the Nebu-Tec Optineb nebulizer and the AERx Essence. The bulk drug solutions were diluted by the addition of ^99mTc-DTPA (2000 MBq/mL) at a ratio of 19:1, i.e. 0.05 mL of ^99mTc-DTPA was added to 0.950 mL of bulk drug solution. Each mL of the radiolabeled drug solutions therefore contained 100 MBq of ^99mTc-DTPA and 570 μg of treprostinil. The radiolabel ^99mTc as ^99mTc-DTPA was acquired from an approved supplier (i.e., the Medical Physics Department, University Hospital of Wales, Heath, Cardiff [Manufacturers License Number: MS/IMP18523]).
In this study, the radiolabel marker (^99mTc-DTPA) deposition profiles obtained following administration of a radiolabeled treprostinil sodium formulation will be evaluated using gamma to assess the performance for the two delivery systems. Gamma scintigraphy offers a precise and accurate method of evaluating the deposition of an inhaled radiolabeled aerosol in the oropharynx and lung.
To compare the emitted dose, delivered lung dose, and the central-to-peripheral (sC/P) lung deposition of radiolabeled treprostinil sodium delivered via the AERx Essence System versus the Nebu-Tec Optineb nebulizer using gamma scintigraphy.
In addition the following secondary efficacy variables were determined, the dose (μg) of treprostinil deposited in the lung, the percent dose (emitted and loaded) of radiolabeled treprostinil sodium in the oropharyngeal region from both devices, the percent loaded dose remaining in both devices and associated equipment e.g. mouthpiece.
Scintigraphic data were used to determine the fraction of the loaded dose delivered to the lung which was subsequently utilised to estimate the lung dose in terms of μg of Treprostinil. For AERx, the calculation of lung dose was derived by normalising the emitted dose to lung for the fraction (%) of the loaded dose retained post-administration i.e. within the device and dosage forms. The actual dose within the AERx strips (a single dose consisted of two strips) was calculated from the nominal treprostinil concentration adjusted for the actual concentration determined by HPLC assay of the stock radiolabeled drug solutions on each dosing day (see Table 14.2.1.5).
The Optineb device contained a drug reservoir (nebuliser cup) from which each dose (six separate puffs) was metered. To determine the dose available to the subject an in vitro test to collect a single emitted dose (ED) was performed for each device following subject dosing.

**Q.** What does the source list for CCCCC[C@H](O)CC[C@@H]1[C@H]2Cc3cccc(OCC(=O)[O-])c3C[C@H]2C[C@H]1O.[Na+] [treprostinil, (1R,2R,3aS,9aS)-[[2,3,3a,4,9,9a-Hexahydro-2-hydroxyl-1-[(3S)-3-hydroxyoctyl]-1H-benz[f]inden-5-yl]oxy]acetic acid monosodium salt]?
**A.** % loaded dose in mouthpiece, AERx − Nebu-Tec Difference (95% C.I.) (listed as Treprostinil): −4.84 (−9.92-0.23) %; % loaded dose in mouthpiece, AERx − Nebu-Tec Difference (95% C.I.): −4.84%; Calculated ED (via AERx, two strips, Mean): 28.32 µg; % loaded dose in mouthpiece (via AERx): 2.35%; AERx Post Dose (via AERx, Max): 50.10 % LD; Calculated ED (via AERx, Max): 32.90 µg; DF Post-dose (via AERx, Max): 22.93 % LD; Mass balance (via AERx, Max): 105.91%; Mouth-piece (via AERx, Max): 4.41 % LD; Total dose retained (via AERx, Max): 72.74 % LD; AERx Post Dose (retained in device, corrected for attenuation) (via AERx, Mean): 30.04 % LD; DF Post-dose (dosage forms) (via AERx, Mean): 20.87 % LD; Mass balance (total radioactivity recovered) (via AERx, Mean): 99.76%; Mouth-piece (via AERx, Mean): 2.35 % LD; Total dose retained (via AERx, Mean): 53.25 % LD; AERx Post Dose (via AERx, Min): 24.64 % LD; Calculated ED (via AERx, Min): 16.40 µg; DF Post-dose (via AERx, Min): 17.98 % LD; Mass balance (via AERx, Min): 91.99%; Mouth-piece (via AERx, Min): 0.72 % LD; Total dose retained (via AERx, Min): 45.76 % LD; % loaded dose in mouthpiece (via Nebu-Tec): 7.19%; Mass balance (via Optineb, Max): 122.33%; Mouth-piece (MP) (via Optineb, Max): 36.09 % ND; Mass balance (total radioactivity recovered) (via Optineb, Mean): 89.37%; Mouth-piece (MP) (via Optineb, Mean, % of nebulised dose): 7.19 % ND; Mass balance (via Optineb, Min): 70.47%; Mouth-piece (MP) (via Optineb, Min): 1.60 % ND
